Results are given in words; binding and its absence hold for the method and conditions named. Binding calls can cover weak binding; strength is not graded here.
How the values were obtained:
Assay in all cases: two-hybrid
[1] = biological target: T1, BLR38 (Bremia lactucae)
T1 sequence: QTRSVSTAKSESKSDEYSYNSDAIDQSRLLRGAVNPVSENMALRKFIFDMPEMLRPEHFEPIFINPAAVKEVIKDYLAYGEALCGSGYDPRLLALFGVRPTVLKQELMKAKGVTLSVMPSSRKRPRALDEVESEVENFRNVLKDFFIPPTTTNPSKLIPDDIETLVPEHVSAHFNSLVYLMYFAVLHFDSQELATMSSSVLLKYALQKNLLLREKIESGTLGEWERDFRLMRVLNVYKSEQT

[2] = biological target: T2, BLR08 (Bremia lactucae) (UniProt P0CU87)
T2 sequence: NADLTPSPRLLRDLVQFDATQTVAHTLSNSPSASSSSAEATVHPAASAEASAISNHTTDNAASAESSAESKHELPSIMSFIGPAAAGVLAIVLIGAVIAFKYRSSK

[3] = biological target: T3, BLR05 (Bremia lactucae) (UniProt P0CU86)
T3 sequence: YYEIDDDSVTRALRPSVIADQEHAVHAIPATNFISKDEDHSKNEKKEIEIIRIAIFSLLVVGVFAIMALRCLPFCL

[4] = biological target: T4, BLR09 (Bremia lactucae) (UniProt P0CU88)
T4 sequence: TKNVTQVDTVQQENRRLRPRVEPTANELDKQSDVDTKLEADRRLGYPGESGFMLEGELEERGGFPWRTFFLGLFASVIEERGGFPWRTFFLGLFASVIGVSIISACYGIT

[5] = biological target: T5, BLN04 (Bremia lactucae)
T5 sequence: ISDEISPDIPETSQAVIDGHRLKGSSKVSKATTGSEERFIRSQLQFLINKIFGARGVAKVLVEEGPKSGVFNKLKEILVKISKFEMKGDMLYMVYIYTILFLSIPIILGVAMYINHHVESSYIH

Row | Substance | binding [1] | binding [2] | binding [3] | binding [4] | binding [5]
1 | LsFLX-like2 (Lactuca sativa) | binds | – | – | – | –
2 | LsNAC069 (Lactuca sativa) | – | binds | binds | binds | binds
